From the supplement of paper PMC7877785
± gives the uncertainty stated by the source. Many of these values have a large error.

Assay: self-splicing fitness, log relative to wild type (ln ratio); higher = more splicing; Tetrahymena group I intron in knt gene, E. coli kanamycin selection, DiMSum; sequences stand for … in CUCUCU…GGAGGGAAAAGUUAUCAGGCAUGCACCUGGUAGCUAGUCUUUAAACCAAUAGAUUGCAUCGGUUUAAAAGGCAAGACCGUCAAAUUGCGGGAAAGGGGUCAACAGCCGUUCAGUACCAAGUCUCAGGGGAAACUUUGAGAUGGCCUUGCAAAGGGUAUGGUAAUAAGCUGACGGACAUGGUCCUAACCACGCAGCCAAGUCCUAAGUCAACAGAUCUUCUGUUGAUAUGGAUGCAGUUCACAGACUAAAUGUCGGUCGGGGAAGAUGUAUUCUUCUCAUAAGAUAUAGUCGGACCUCUCCUUAAUGGGAGCUAGCGGAUGAAGUGAUGCAACACUGGAGCCGCUGGGAACUAAUUUGUAUGCGAAAGUAUAUUGAUUAGUUUUGGAGUACUCGUGGUCG
Summary of the method: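 The eight P1ex-region nucleotides of an intron in the knt kanamycin-resistance gene on pET-22b(+) were all randomised and the library put into E. coli BL21(DE3). Six replicate transformations were grown overnight at 37°C or 30°C on LB agar with or without 25 μg/mL kanamycin, together with 100 μg/mL carbenicillin, 50 μM IPTG and 0.2% rhamnose. Colonies were pooled and amplicon-sequenced on an Illumina HiSeq 2500. Fitness from DiMSum is the error-weighted combination of wild-type-normalised replicate fold changes, kanamycin over none.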

| Sequence | self-splicing fitness (ln) (30 °C) | self-splicing fitness (ln) (37 °C) |
| --- | --- | --- |
| AAAAAGCAAUAUUACGGCUU | -0.00557 ± 0.049 | 0.259 ± 0.066 |
| GGCGAGCAAUAUUACGUCAC | – | -2.75 ± 0.6 |
| CUGGAGCAAUAUUACGCAUA | -3.4 ± 0.61 | – |
| CCAGAGCAAUAUUACGCCGU | – | -3.03 ± 0.53 |
| UUAGAGCAAUAUUACGCAAC | -3.54 ± 0.6 | -3.09 ± 0.74 |
| GCGUAGCAAUAUUACGCAAU | -4.66 ± 1 | -3.11 ± 0.74 |
| GCCGAGCAAUAUUACGUUGA | -3 ± 0.16 | -2.88 ± 0.2 |
| AUGAAGCAAUAUUACGGAUG | -0.705 ± 0.063 | 0.152 ± 0.076 |
| AAGGAGCAAUAUUACGCUCC | -1.32 ± 0.58 | – |
| UUUGAGCAAUAUUACGAGAG | – | -2.18 ± 1.1 |
| ACCAAGCAAUAUUACGCCGG | -2.33 ± 0.13 | -0.125 ± 0.13 |
| GGGGAGCAAUAUUACGCGGU | – | -1.92 ± 0.52 |
| UGGUAGCAAUAUUACGCCAU | -2.44 ± 0.54 | – |
| CUCGAGCAAUAUUACGUCAG | -3.41 ± 0.54 | – |
| CCUCAGCAAUAUUACGCGCC | -4.39 ± 1 | -1.71 ± 0.65 |
| CCGGAGCAAUAUUACGUAUC | -4.48 ± 0.59 | – |
| GGAUAGCAAUAUUACGGCAC | -1.16 ± 0.14 | -0.0176 ± 0.17 |
| UCCUAGCAAUAUUACGGGUA | -0.468 ± 0.088 | -0.134 ± 0.12 |
| UAAGAGCAAUAUUACGAUAA | -2.8 ± 0.5 | -2.37 ± 0.63 |
| AAUGAGCAAUAUUACGCCGC | -2.95 ± 0.54 | – |
| UUCAAGCAAUAUUACGUCUU | -4.97 ± 0.58 | – |
| CCCGAGCAAUAUUACGCUAC | -3.35 ± 0.65 | -2.05 ± 0.8 |
| AGUGAGCAAUAUUACGCAGC | – | -1.65 ± 0.84 |
| ACUAAGCAAUAUUACGCCCA | -0.779 ± 0.11 | -0.482 ± 0.13 |

Part of the list above, reformatted:
GCCGAGCAAUAUUACGUUGA
  self-splicing fitness (ln) (30 °C): -3 ± 0.16; self-splicing fitness (ln) (37 °C): -2.88 ± 0.2
AUGAAGCAAUAUUACGGAUG
  self-splicing fitness (ln) (30 °C): -0.705 ± 0.063; self-splicing fitness (ln) (37 °C): 0.152 ± 0.076
AAGGAGCAAUAUUACGCUCC
  self-splicing fitness (ln) (30 °C): -1.32 ± 0.58

Remaining list, next part.

| Sequence | self-splicing fitness (ln) (30 °C) | self-splicing fitness (ln) (37 °C) |
| --- | --- | --- |
| UGGUAGCAAUAUUACGGGGC | -4.42 ± 1 | – |
| UCGUAGCAAUAUUACGACCA | – | -1.13 ± 0.51 |
| ACGGAGCAAUAUUACGCCCC | -0.86 ± 1.4 | – |
| GCUGAGCAAUAUUACGCUCG | -2.7 ± 0.36 | -0.729 ± 0.26 |
| UCCGAGCAAUAUUACGACUA | -2.51 ± 0.28 | -2.21 ± 0.27 |
| CCACAGCAAUAUUACGACCC | -4.02 ± 0.39 | -2.75 ± 0.53 |
| CGCGAGCAAUAUUACGUCCU | -0.995 ± 1.2 | – |
| CUGUAGCAAUAUUACGGACA | -2.09 ± 1.4 | -0.924 ± 0.93 |
| UUGCAGCAAUAUUACGACCC | -1.91 ± 0.56 | – |
| GCGAAGCAAUAUUACGACCC | – | 0.823 ± 0.79 |
| UCCUAGCAAUAUUACGACGC | -2.35 ± 0.17 | -2.02 ± 0.2 |
| AGUAAGCAAUAUUACGAUGU | -3.05 ± 0.15 | -1.17 ± 0.13 |
| GGCUAGCAAUAUUACGCGAC | – | -0.372 ± 0.68 |
| UCUUAGCAAUAUUACGCUAC | – | -2.72 ± 1.1 |
| ACUAAGCAAUAUUACGUGUA | -2.6 ± 0.13 | -1.38 ± 0.12 |
| AGGUAGCAAUAUUACGGUAA | -2.123 ± 0.021 | -1.2 ± 0.034 |
| GGAAAGCAAUAUUACGACCC | – | -0.44 ± 1.4 |
| UGGGAGCAAUAUUACGCUUC | – | -2.02 ± 0.57 |
| CUCGAGCAAUAUUACGGAUC | -3.34 ± 0.6 | – |
| ACAGAGCAAUAUUACGCUCC | -3.15 ± 0.64 | – |
| CUGUAGCAAUAUUACGUCCU | – | -1.98 ± 1.1 |
| GUGGAGCAAUAUUACGAAUU | -3.77 ± 0.75 | – |
| CCUUAGCAAUAUUACGGUCA | -4.77 ± 0.51 | – |
| AUAGAGCAAUAUUACGAGAC | -3.19 ± 1.2 | -1.28 ± 0.57 |

31 entries from above, tab-delimited.
Sequence	self-splicing fitness (ln) (30 °C)	self-splicing fitness (ln) (37 °C)
CCUCAGCAAUAUUACGCGCC	-4.39 ± 1	-1.71 ± 0.65
CCGGAGCAAUAUUACGUAUC	-4.48 ± 0.59	–
UCCUAGCAAUAUUACGGGUA	-0.468 ± 0.088	-0.134 ± 0.12
UAAGAGCAAUAUUACGAUAA	-2.8 ± 0.5	-2.37 ± 0.63
AAUGAGCAAUAUUACGCCGC	-2.95 ± 0.54	–
UUCAAGCAAUAUUACGUCUU	-4.97 ± 0.58	–
CCCGAGCAAUAUUACGCUAC	-3.35 ± 0.65	-2.05 ± 0.8
AGUGAGCAAUAUUACGCAGC	–	-1.65 ± 0.84
ACUAAGCAAUAUUACGCCCA	-0.779 ± 0.11	-0.482 ± 0.13
UGGUAGCAAUAUUACGGGGC	-4.42 ± 1	–
UCGUAGCAAUAUUACGACCA	–	-1.13 ± 0.51
ACGGAGCAAUAUUACGCCCC	-0.86 ± 1.4	–
UCCGAGCAAUAUUACGACUA	-2.51 ± 0.28	-2.21 ± 0.27
CCACAGCAAUAUUACGACCC	-4.02 ± 0.39	-2.75 ± 0.53
CGCGAGCAAUAUUACGUCCU	-0.995 ± 1.2	–
CUGUAGCAAUAUUACGGACA	-2.09 ± 1.4	-0.924 ± 0.93
GCGAAGCAAUAUUACGACCC	–	0.823 ± 0.79
UCCUAGCAAUAUUACGACGC	-2.35 ± 0.17	-2.02 ± 0.2
AGUAAGCAAUAUUACGAUGU	-3.05 ± 0.15	-1.17 ± 0.13
GGCUAGCAAUAUUACGCGAC	–	-0.372 ± 0.68
UCUUAGCAAUAUUACGCUAC	–	-2.72 ± 1.1
ACUAAGCAAUAUUACGUGUA	-2.6 ± 0.13	-1.38 ± 0.12
AGGUAGCAAUAUUACGGUAA	-2.123 ± 0.021	-1.2 ± 0.034
GGAAAGCAAUAUUACGACCC	–	-0.44 ± 1.4
UGGGAGCAAUAUUACGCUUC	–	-2.02 ± 0.57
CUCGAGCAAUAUUACGGAUC	-3.34 ± 0.6	–
ACAGAGCAAUAUUACGCUCC	-3.15 ± 0.64	–
CUGUAGCAAUAUUACGUCCU	–	-1.98 ± 1.1
GUGGAGCAAUAUUACGAAUU	-3.77 ± 0.75	–
CCUUAGCAAUAUUACGGUCA	-4.77 ± 0.51	–
AUAGAGCAAUAUUACGAGAC	-3.19 ± 1.2	-1.28 ± 0.57

Additional records follow:

| Sequence | self-splicing fitness (ln) (30 °C) | self-splicing fitness (ln) (37 °C) |
| --- | --- | --- |
| GUGCAGCAAUAUUACGCUUC | -2.46 ± 0.66 | -2 ± 0.5 |
| UUCUAGCAAUAUUACGAACU | -2.95 ± 1.1 | -2.9 ± 1.1 |
| UACUAGCAAUAUUACGCUAC | -4.01 ± 0.52 | – |
| UUCAAGCAAUAUUACGUCCC | – | -0.234 ± 1 |
| ACAGAGCAAUAUUACGAGAG | -3.84 ± 0.53 | – |
| UAUCAGCAAUAUUACGCUCA | -0.0488 ± 0.092 | 0.0773 ± 0.11 |
| UAGGAGCAAUAUUACGCUAA | -2.42 ± 0.67 | – |
| AGGGAGCAAUAUUACGCGGG | – | -3.37 ± 0.6 |
| AGAGAGCAAUAUUACGGAAA | -2.14 ± 0.53 | -2.24 ± 0.79 |
| GGAAAGCAAUAUUACGCGCG | -0.394 ± 0.08 | -0.275 ± 0.12 |
| UGAGAGCAAUAUUACGCUGU | -3.34 ± 1.1 | -2.2 ± 0.78 |
| GCGGAGCAAUAUUACGCUCU | -4.66 ± 1 | -1.98 ± 0.52 |
| AUGGAGCAAUAUUACGCCUC | – | -1.21 ± 0.68 |
| GGUAAGCAAUAUUACGUUUG | -4.17 ± 0.72 | – |
| UUCUAGCAAUAUUACGCCCC | -1.27 ± 1.4 | -1.36 ± 0.56 |
| GACGAGCAAUAUUACGAGCU | -3.27 ± 0.31 | -1.83 ± 0.52 |
| UCGAAGCAAUAUUACGUAGC | -3.84 ± 0.51 | – |
| GGAUAGCAAUAUUACGAGAA | -1.79 ± 0.93 | -1.42 ± 0.5 |
| GGCGAGCAAUAUUACGCAGC | – | -2.48 ± 0.79 |
| CUUGAGCAAUAUUACGCCCA | -0.925 ± 0.57 | -2.29 ± 0.8 |
| GUUGAGCAAUAUUACGAGCU | -5.02 ± 1 | -3.09 ± 0.74 |
| UGCGAGCAAUAUUACGGCCG | – | -1.65 ± 0.58 |
| GUGGAGCAAUAUUACGUGUU | – | -2.24 ± 0.56 |
| GUAGAGCAAUAUUACGCCAA | -2.79 ± 0.62 | -0.681 ± 1.4 |

| Sequence | self-splicing fitness (ln) (30 °C) | self-splicing fitness (ln) (37 °C) |
| --- | --- | --- |
| AAGCAGCAAUAUUACGCUCA | 0.661 ± 0.12 | -0.0809 ± 0.2 |
| UCCCAGCAAUAUUACGUCUC | -3.23 ± 0.22 | -2.89 ± 0.25 |
| UAAUAGCAAUAUUACGGUGC | -3.71 ± 0.6 | – |
| GGUUAGCAAUAUUACGCCAU | – | -0.943 ± 0.84 |
| UGAGAGCAAUAUUACGAGAC | -4.44 ± 0.46 | -2.59 ± 0.29 |
| AGUUAGCAAUAUUACGCUAC | – | -1.77 ± 0.52 |
| UAGGAGCAAUAUUACGAUGU | -3.42 ± 0.73 | – |
| AUCGAGCAAUAUUACGCUGC | – | -2.66 ± 0.75 |
| GUUAAGCAAUAUUACGAAGA | – | -2.51 ± 0.77 |
| GAAGAGCAAUAUUACGAUCC | – | -1.12 ± 0.93 |
| AUUGAGCAAUAUUACGACCA | -1.66 ± 0.71 | -2.16 ± 0.58 |
| GAUGAGCAAUAUUACGGGAU | -3.89 ± 1 | – |
| CUGAAGCAAUAUUACGUGCC | -3.5 ± 0.52 | – |
| GUCGAGCAAUAUUACGCUAC | -3.26 ± 0.53 | -1.12 ± 0.64 |
| CCUAAGCAAUAUUACGAAAC | – | -4.61 ± 1 |
| CCGUAGCAAUAUUACGAAUC | -3.06 ± 0.8 | -0.928 ± 0.61 |
| AAAGAGCAAUAUUACGACGA | -2.27 ± 0.23 | -2.57 ± 0.25 |
| CCAAAGCAAUAUUACGAUAC | – | -1.7 ± 0.59 |
| AAAGAGCAAUAUUACGGCAC | -2.72 ± 0.19 | -2.01 ± 0.21 |
| GAUAAGCAAUAUUACGAACU | -0.896 ± 0.079 | -0.073 ± 0.11 |
| GUUAAGCAAUAUUACGAUAG | -4.33 ± 0.72 | – |
| AUUGAGCAAUAUUACGAUCG | -2.34 ± 0.34 | -1.04 ± 0.19 |
| UCGGAGCAAUAUUACGAAUA | -2.32 ± 0.32 | -1.27 ± 0.32 |
| GGCGAGCAAUAUUACGUGCC | -3.81 ± 1 | – |

| Sequence | self-splicing fitness (ln) (30 °C) | self-splicing fitness (ln) (37 °C) |
| --- | --- | --- |
| UAAGAGCAAUAUUACGUCCG | – | -1.88 ± 0.56 |
| CUAGAGCAAUAUUACGGACU | -2.28 ± 0.51 | -1.47 ± 1.2 |
| GGAGAGCAAUAUUACGAUCC | – | -2.64 ± 1.1 |
| GUUAAGCAAUAUUACGGAAC | -4.03 ± 1 | -1.43 ± 0.34 |
| AGGAAGCAAUAUUACGCUGA | -2.96 ± 0.23 | -1.97 ± 0.22 |
| UAGCAGCAAUAUUACGUACG | -1.2 ± 0.072 | -0.47 ± 0.1 |
| GCUUAGCAAUAUUACGUCAG | -2.36 ± 0.22 | -3.3 ± 0.52 |
| AACUAGCAAUAUUACGAAAU | -2.01 ± 0.09 | -0.94 ± 0.1 |
| UUGAAGCAAUAUUACGUAAC | – | -2.35 ± 0.67 |
| GGUUAGCAAUAUUACGUCAC | -4.32 ± 1 | – |
| CGAUAGCAAUAUUACGAAAC | – | -2.54 ± 1.1 |
| GGCUAGCAAUAUUACGUCGC | -1.5 ± 0.28 | -0.438 ± 0.22 |
| GUCGAGCAAUAUUACGACGG | -3.93 ± 0.59 | – |
| UCGGAGCAAUAUUACGGGAC | -1.32 ± 1.4 | – |
| GUGGAGCAAUAUUACGACAG | -4.49 ± 1 | -1.13 ± 1.2 |
| UCAUAGCAAUAUUACGCCCU | – | -1.83 ± 0.58 |
| GUAAAGCAAUAUUACGGAGA | – | -3.62 ± 0.51 |
| CAGUAGCAAUAUUACGAGGU | -4.55 ± 0.52 | – |
| CGGAAGCAAUAUUACGAGAC | -1.38 ± 0.6 | -3.36 ± 0.6 |
| GCGGAGCAAUAUUACGUGCC | -3.53 ± 0.54 | -1.39 ± 1.2 |
